Patent publication US6353015B1, “Method of treating neurodegenerative disorders” (St. Elizabeth's Medical Center, priority 1998, dated 2002)

Tested on: rat pineal
Test: Rat pineal levels of NAS and melatonin after systemic administration
Conditions: preliminary experiments

| Compound | rat pineal level of NAS | rat pineal level of melatonin |
| --- | --- | --- |
| CCCC(=O)NCCc1c[nH]c2ccc(OCc3ccccc3)cc12 [CA-18, N-[2-(5-Benzyloxyindol-3-yl)ethyl] butanamide] | did not change | did not change |
| CCC(=O)NCCc1c[nH]c2ccc(OCc3ccccc3)cc12 [CA-15, N-[2-(5-Benzyloxyindol-3-yl)ethyl]propanamide] | did not change | did not change |
